Reference: paper doi:10.1101/2025.02.20.639281
These are yes or no findings as the source states them, for the method shown. Binding seen in cells or lysates may run through a third protein. Sequences can lack the tags named with a protein.

Target: T1, Lte1^mREM-ProA (S. cerevisiae) (UniProt P07866)
T1 sequence: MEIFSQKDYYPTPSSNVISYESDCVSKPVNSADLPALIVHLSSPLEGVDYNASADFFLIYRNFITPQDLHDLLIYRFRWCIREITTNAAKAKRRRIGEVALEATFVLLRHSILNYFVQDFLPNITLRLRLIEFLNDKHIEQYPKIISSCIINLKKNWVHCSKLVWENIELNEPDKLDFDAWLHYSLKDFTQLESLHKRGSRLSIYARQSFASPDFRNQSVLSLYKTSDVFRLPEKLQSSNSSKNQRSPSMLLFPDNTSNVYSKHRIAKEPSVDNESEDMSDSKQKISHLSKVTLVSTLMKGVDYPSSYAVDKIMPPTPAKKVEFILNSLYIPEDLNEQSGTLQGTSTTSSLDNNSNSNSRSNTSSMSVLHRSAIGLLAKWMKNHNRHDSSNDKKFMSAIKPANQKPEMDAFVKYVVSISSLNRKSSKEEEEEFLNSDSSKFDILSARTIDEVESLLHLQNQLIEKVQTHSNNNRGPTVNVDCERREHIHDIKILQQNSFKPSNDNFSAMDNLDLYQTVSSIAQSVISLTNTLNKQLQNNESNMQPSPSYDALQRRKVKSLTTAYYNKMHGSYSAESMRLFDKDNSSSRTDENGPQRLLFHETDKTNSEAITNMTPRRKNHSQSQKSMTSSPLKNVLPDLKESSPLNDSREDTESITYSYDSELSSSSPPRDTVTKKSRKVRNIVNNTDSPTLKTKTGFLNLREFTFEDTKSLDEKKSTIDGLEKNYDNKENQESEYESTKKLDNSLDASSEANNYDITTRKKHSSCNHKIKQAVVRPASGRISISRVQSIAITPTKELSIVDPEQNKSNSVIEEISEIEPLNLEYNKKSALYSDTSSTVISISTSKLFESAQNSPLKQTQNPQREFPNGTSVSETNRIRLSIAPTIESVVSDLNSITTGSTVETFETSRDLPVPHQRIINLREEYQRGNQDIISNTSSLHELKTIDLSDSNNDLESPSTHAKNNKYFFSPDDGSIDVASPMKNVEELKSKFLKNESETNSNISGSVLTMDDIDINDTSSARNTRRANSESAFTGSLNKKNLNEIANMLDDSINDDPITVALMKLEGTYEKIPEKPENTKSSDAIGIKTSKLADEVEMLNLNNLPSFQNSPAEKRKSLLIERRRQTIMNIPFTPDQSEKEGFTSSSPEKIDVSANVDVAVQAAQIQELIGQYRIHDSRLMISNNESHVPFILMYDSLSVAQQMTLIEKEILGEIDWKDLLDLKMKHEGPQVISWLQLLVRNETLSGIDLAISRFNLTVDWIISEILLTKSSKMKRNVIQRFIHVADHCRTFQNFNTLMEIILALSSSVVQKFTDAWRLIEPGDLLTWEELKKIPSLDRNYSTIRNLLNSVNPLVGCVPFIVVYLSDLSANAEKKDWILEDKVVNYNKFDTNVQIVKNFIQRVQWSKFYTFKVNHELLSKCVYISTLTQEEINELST
Experiment: co-IP

binding: no binding
B1: His6-Ras2 (protein, UniProt P01120 1-322)
chain: MPLNKSNIREYKLVVVGGGGVGKSALTIQLTQSHFVDEYDPTIEDSYRKQVVIDDEVSILDILDTAGQEEYSAMREQYMRNGEGFLLVYSITSKSSLDELMTYYQQILRVKDTDYVPIVVVGNKSDLENEKQVSYQDGLNMAKQMNAPFLETSAKQAINVEEAFYTLARLVRDEGGKYNKTLTENDNSKQTSQDTKGSGANSVPRNSGGHRKMSNAANGKNVNSSTTVVNARNASIESKTGLAGNQATNGKTQTDRTNIDNSTGQAGQANAQSANTVNNRVNNNSKAGQVSNAKQARKQQAAPGGNTSEASKSGSGGCCIIS
